No constants are given. Whether binding was seen depends on the method and setting. Some binding calls cover weakened binding; strength is not graded here.

Amino acid sequences for entries named in this document (tags omitted).
UniProt Q1D6H4: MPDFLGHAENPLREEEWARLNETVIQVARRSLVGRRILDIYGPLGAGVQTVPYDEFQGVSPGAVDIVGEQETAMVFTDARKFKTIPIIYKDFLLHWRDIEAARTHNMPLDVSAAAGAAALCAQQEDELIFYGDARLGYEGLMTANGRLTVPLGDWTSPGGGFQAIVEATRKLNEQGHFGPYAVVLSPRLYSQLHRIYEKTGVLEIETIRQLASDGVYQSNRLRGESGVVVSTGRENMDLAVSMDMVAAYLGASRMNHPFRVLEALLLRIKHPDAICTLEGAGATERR

In this experiment the target is Mx^FLAG (wild-type encapsulin from Myxococcus xanthus with FLAG tag) (Myxococcus xanthus) (UniProt Q1D6H4). Description: native gel or EMSA; Clear Native (CN) PAGE of lysates of HEK293T cells expressing the variant; NativePAGE 3 to 12% gels, cathode buffer with 0.05% sodium deoxycholate, 150 V for 2 h at room temperature; Coomassie staining or UV illumination; self-assembly of the monomers into icosahedral shells.

For the substance “Mx^FLAG (wild-type encapsulin from Myxococcus xanthus with FLAG tag) (from UniProt Q1D6H4 1-287)”, the binding entry is recorded as “binds”.

The values above are taken from article PMC10713455.
